Laboratory results as given in paper PMC12336824 (The Journal of Biological Chemistry, 2025).
Several values for one entry are separate records, joined by “and”; a condition that tells them apart may be missing. Equal entries are not always repeated.

Assays:
NQR = NQR (Vibrio cholerae serotype O1, UniProt Q9KPS2+Q9X4Q6); test: biochemical
V. cholerae NQR complex = V. cholerae NQR complex (Vibrio cholerae serotype O1, UniProt Q9KPS2+Q9X4Q6); test: biochemical

Row | SMILES | Ki (NQR; Kic) | Ki (NQR; Kiu) | IC50 (V. cholerae NQR complex) [µM] | inhibition at 50 µM (V. cholerae NQR complex; read-out: inhibition of the ubiquinone reductase activity) [%] | inhibition of the ubiquinone reductase activity (V. cholerae NQR complex)
1 | CSc1ccc2c(c1)N(CCC1CCCCN1C)c1ccccc1S2 (centres unmarked) [thioridazine] | 35 µM and 70 µM | 38 µM and 37 µM | 22 ± 6 | 60 | 
2 | CN1CCN(CCCN2c3ccccc3Sc3ccc(Cl)cc32)CC1 [prochlorperazine] |  |  |  |  | did not produce a comparable inhibition
